# Test results from PubChem BioAssay AID2685 (National Center for Advancing Translational Sciences (NCATS), 2010).
# The list shows a part of the results. Shown are side measurements of this screen, not its main read-out; they come without a call. Most of these compounds were active or inconclusive in the main read-out, so they are no random draw. Potencies come from curve fits of mixed quality, noted in brackets.
# Assay: qHTS Assay for Lipid Storage Modulators in Drosophila S3 Cells;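 on cell number change: cells counted by Cell Tracker Red CMTPX staining in the red channel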
# Conditions: BODIPY lipid droplet fluorescence, 18-24 h; for cell number change: measured here: cell count max response, cells fed with added oleic acid
# Procedure, shortened: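 Drosophila S3 cells got compounds at several concentrations plus oleic acid (400 uM solution). Laser-scanning cytometry with 488 nm excitation read lipid droplets at 500-530 nm and cells at 575-640 nm. Percent activity was relative to 20 uM Triacsin C.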
# [1] = measured here: lipid fluorescence (Fed channel) AC50, cells fed with added oleic acid
# [2] = measured here: cell number channel AC50, cells fed with added oleic acid
SMILES,cell number change,AC50 [1],AC50 [2]
COc1cc(CN2CCCC(C(=O)c3ccc(SC)cc3)C2)cc(Cl)c1O (stereo unspecified),-16.4%,"6.51 µM [falling, single point]",–
CCOC(=O)c1sc(NC(=O)Nc2ccc(Cl)cc2)cc1C,-138%,"8.2 µM [falling, partial curve]","10.3 µM [falling, partial curve]"
CCOC(=O)c1c(NC(=O)COc2cccc3c2CCN(CC)C3=O)sc2c1CCC2,14.4%,–,–
Cc1oc(-c2ccccc2F)nc1CS(=O)(=O)CC(=O)NCCCN1CC(C)CC(C)C1 (stereo unspecified),41.3%,–,"18.4 µM [rising, single point]"
COc1cccc2c1cc1c(=O)n(CC(=O)NCCCN3CCN(C)CC3)nc(C)n12,4.48%,–,–
COc1ccc2c(c1)O[C@H](c1ccc3c(c1)OCO3)[C@@H](OC(=O)N[C@H](C)C1CCCCC1)C2=O,18.6%,"1.64 µM [rising, partial curve]",–
CNC(=O)c1cc(Nc2nnc(C)c3ccccc23)ccc1OC,–,"0.731 µM [rising, single point]","0.651 µM [rising, partial curve]"
Clc1ccc(-n2nnnc2-c2cnc3ccc(Cl)cc3c2-c2ccccc2)cc1,13.4%,"5.8 µM [rising, single point]",–
Cc1c2c(nc3nc4ccccc4n13)CC(C)(C)CC2=O,204%,–,"29.1 µM [rising, single point]"
COc1cc(/C=c2\sc3nc(-c4ccncc4)nn3c2=O)ccc1OC(C)=O,11.6%,"29.1 µM [rising, single point]",–
CCCCCCC(=O)Nc1c2c(nc3ccccc13)N(C)CC2,-4.58%,"0.651 µM [rising, single point]","0.206 µM [falling, full curve, poor fit]"
COC(=O)[C@@]12CCCN1[C@H](c1ccc(-c3ccc(OC)cc3)c(OC)c1)[C@H]1C(=O)N(C)C(=O)[C@H]12,–,"0.58 µM [falling, full curve, poor fit]",–
O=C(CN(c1ccccn1)S(=O)(=O)c1ccc(F)cc1)Nc1ccccc1,-3.12%,"0.00461 µM [falling, full curve, poor fit]","0.651 µM [falling, single point]"
CCOc1ccccc1OCCCCCc1c(C)n[nH]c1C,-28.9%,"13 µM [falling, partial curve]",–
CC(OC(=O)c1ccc(NC(=O)CC#N)cc1)C(=O)NCCC1=CCCCC1 (stereo unspecified),34.3%,"18.4 µM [rising, single point]","29.1 µM [rising, single point]"

# Laid out differently: two of the compounds above
SMILES | cell number change | AC50 [1] | AC50 [2]
CCOC(=O)c1c(NC(=O)COc2cccc3c2CCN(CC)C3=O)sc2c1CCC2 | 14.4% | – | –
Cc1oc(-c2ccccc2F)nc1CS(=O)(=O)CC(=O)NCCCN1CC(C)CC(C)C1 (stereo unspecified) | 41.3% | – | 18.4 µM [rising, single point]
